Here are results for 5 molecules from publication doi:10.1101/2020.11.06.371260.

Assay [1] addresses T1, AtEXO70B1, yeast two-hybrid fusion (Arabidopsis thaliana) (UniProt Q9FGH9).
T1 sequence: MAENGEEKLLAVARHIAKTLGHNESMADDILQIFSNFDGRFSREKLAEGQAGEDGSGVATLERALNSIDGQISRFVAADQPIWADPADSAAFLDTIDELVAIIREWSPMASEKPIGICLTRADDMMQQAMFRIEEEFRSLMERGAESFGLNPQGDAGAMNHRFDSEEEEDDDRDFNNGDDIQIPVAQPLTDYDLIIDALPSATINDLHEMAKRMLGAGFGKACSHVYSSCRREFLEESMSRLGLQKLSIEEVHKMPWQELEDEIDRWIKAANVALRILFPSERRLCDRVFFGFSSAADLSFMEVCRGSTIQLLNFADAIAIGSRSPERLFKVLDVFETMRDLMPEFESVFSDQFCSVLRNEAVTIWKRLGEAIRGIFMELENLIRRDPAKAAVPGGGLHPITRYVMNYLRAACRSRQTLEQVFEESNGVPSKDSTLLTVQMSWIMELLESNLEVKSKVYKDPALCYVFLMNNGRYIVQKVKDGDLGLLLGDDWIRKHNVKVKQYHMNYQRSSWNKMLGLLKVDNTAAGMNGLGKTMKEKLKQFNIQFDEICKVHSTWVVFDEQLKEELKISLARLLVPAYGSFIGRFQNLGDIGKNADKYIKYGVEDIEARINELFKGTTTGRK
Kind of assay: two-hybrid.

Assay [2] has as its target AtEXO70B1-AB truncation (1 to 388 amino acids), yeast two-hybrid fusion (Arabidopsis thaliana) (UniProt Q9FGH9). Briefly: two-hybrid.
The target in assay [3] is T2, AtEXO70B1 fused C-terminally with nVENUS (Arabidopsis thaliana) (UniProt Q9FGH9).
T2 sequence: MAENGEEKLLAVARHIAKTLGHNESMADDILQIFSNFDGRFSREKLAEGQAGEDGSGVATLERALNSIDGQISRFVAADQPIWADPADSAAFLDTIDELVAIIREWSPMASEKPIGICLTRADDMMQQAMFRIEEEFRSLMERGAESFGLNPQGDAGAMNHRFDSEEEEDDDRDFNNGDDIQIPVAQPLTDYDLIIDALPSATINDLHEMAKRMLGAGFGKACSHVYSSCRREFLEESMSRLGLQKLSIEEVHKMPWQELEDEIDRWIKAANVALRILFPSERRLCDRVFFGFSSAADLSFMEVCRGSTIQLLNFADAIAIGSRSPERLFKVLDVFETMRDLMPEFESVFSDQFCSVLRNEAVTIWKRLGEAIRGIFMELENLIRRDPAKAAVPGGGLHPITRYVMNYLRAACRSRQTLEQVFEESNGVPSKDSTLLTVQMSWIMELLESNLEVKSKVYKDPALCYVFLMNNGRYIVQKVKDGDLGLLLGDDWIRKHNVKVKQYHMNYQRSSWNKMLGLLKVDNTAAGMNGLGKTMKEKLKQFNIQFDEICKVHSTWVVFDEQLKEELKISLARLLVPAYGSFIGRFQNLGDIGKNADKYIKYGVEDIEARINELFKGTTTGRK
Briefly: split reporter.

Results are given in words; binding and its absence hold for the method and conditions named. For part of these data: Binding seen in cells or lysates may run through a third protein. Some results given as binding are weak or reduced against the parent protein; the word gives no strength. Where a sequence is shown, tags or fusion partners need not be part of it.

B1: Arabidopsis SEC5A, yeast two-hybrid fusion (protein, UniProt Q8S3U9 1-1090)
chain: MSSDSNDLDEDELLQMALKEQAKRDLTYQKPPSSSARKPVANLVQQPRQQKPVAAAAAPPKKSAAAVRKPSMDEDEESEVELLSISSGDDDLEREREIGGSSGGAGRGRGSDVREKGRARKEDDGAWDGGEPDCWKRVNEAELARRVRDMRESRTAPVVQKVEGKAPAPGKKVALTSLQSLPRGMECIDPLKLGIIDNKTLRLITESSGSPSKAEKVDNTLREKLVYFSDHFDPKLFLSRIHQDTTAADLEAGALGLKSDLKGRNLQRKQLVKDNFDCFVSCKTTIDDIESKLKRIEEDPEGSGTTHLFNCMKSVTSRANLAFEPLFERQAQAEKIRSVQGMLQRFRTLFNLPSIIRSSISKGEYDLAVREYKKAKSIALPSHVNILKRVLEEVEKVMLEFKGTLYKSMEDPKIDFTSLENTVRLLLELEPESDPVWHYLNVQNHRIHGLLEKCTYDHEARVEILRNDTHEKAISDAKWQQIQQNGVSYSDTASSNENNAVQVDLQSVEFPSEEIDILKGRYIKRLTAVLVHHIPVFWKTAISIFSGKFAKSSQVTDTSANKAEEKVTEARYSTHSLEEVAGMIRKTISVYEAKVNSTFCDFDESCILRPFMSDAINEVSKACQAFEAKESTPHSAVVALRKIQAEITKIYIQRLCSWMRASTEGISKEETWIPVSILERNRSPYAISYLPLAFRSVIVSGMEQVNLMILSVKSEAAKSEDMFAQIEEIIISVRLAFLNCFLDFAAHLEQIGADLSQSTSRQDNWKNGYSDEHQEEPSANTYGSVIDPHRRLLMVLSNIGYCKDELASELYNKFKYTWLQSRDKNEDSSDLQDLIMSFSGLGEKVLEHYTFAKANLIRTAATNYLLDSGIQWGSAPQVKGIRDAAVELLHTLVAVHAEVFAGAKPLLDKILGVLIEGLIDTFLSVVEENRSSDLRSIDANGFCQLMFELEYFETVLYSYFTSAATESLKSLQGTVLEIAIESISEAVETPGHNRRPTRGSEDTVSDDKQSVSADDLLALTKQCSNELLQQELERTRVNTACFAESAPLESTPPLPKATYSSFRGSMDSPSRNYRGSQSSGSPINARPRRR
Take B1: the binding entry in assay [1] and in assay [2] was “binds” each time.

B2: Arabidopsis SEC5A, BiFC fusion (protein, UniProt Q8S3U9 1-1090)
chain: MSSDSNDLDEDELLQMALKEQAKRDLTYQKPPSSSARKPVANLVQQPRQQKPVAAAAAPPKKSAAAVRKPSMDEDEESEVELLSISSGDDDLEREREIGGSSGGAGRGRGSDVREKGRARKEDDGAWDGGEPDCWKRVNEAELARRVRDMRESRTAPVVQKVEGKAPAPGKKVALTSLQSLPRGMECIDPLKLGIIDNKTLRLITESSGSPSKAEKVDNTLREKLVYFSDHFDPKLFLSRIHQDTTAADLEAGALGLKSDLKGRNLQRKQLVKDNFDCFVSCKTTIDDIESKLKRIEEDPEGSGTTHLFNCMKSVTSRANLAFEPLFERQAQAEKIRSVQGMLQRFRTLFNLPSIIRSSISKGEYDLAVREYKKAKSIALPSHVNILKRVLEEVEKVMLEFKGTLYKSMEDPKIDFTSLENTVRLLLELEPESDPVWHYLNVQNHRIHGLLEKCTYDHEARVEILRNDTHEKAISDAKWQQIQQNGVSYSDTASSNENNAVQVDLQSVEFPSEEIDILKGRYIKRLTAVLVHHIPVFWKTAISIFSGKFAKSSQVTDTSANKAEEKVTEARYSTHSLEEVAGMIRKTISVYEAKVNSTFCDFDESCILRPFMSDAINEVSKACQAFEAKESTPHSAVVALRKIQAEITKIYIQRLCSWMRASTEGISKEETWIPVSILERNRSPYAISYLPLAFRSVIVSGMEQVNLMILSVKSEAAKSEDMFAQIEEIIISVRLAFLNCFLDFAAHLEQIGADLSQSTSRQDNWKNGYSDEHQEEPSANTYGSVIDPHRRLLMVLSNIGYCKDELASELYNKFKYTWLQSRDKNEDSSDLQDLIMSFSGLGEKVLEHYTFAKANLIRTAATNYLLDSGIQWGSAPQVKGIRDAAVELLHTLVAVHAEVFAGAKPLLDKILGVLIEGLIDTFLSVVEENRSSDLRSIDANGFCQLMFELEYFETVLYSYFTSAATESLKSLQGTVLEIAIESISEAVETPGHNRRPTRGSEDTVSDDKQSVSADDLLALTKQCSNELLQQELERTRVNTACFAESAPLESTPPLPKATYSSFRGSMDSPSRNYRGSQSSGSPINARPRRR
Consider B2, for which the binding result in assay [3] is on record as “binds”.

B3: AtEXO70B1, yeast two-hybrid fusion (protein, UniProt Q9FGH9 1-624)
chain: MAENGEEKLLAVARHIAKTLGHNESMADDILQIFSNFDGRFSREKLAEGQAGEDGSGVATLERALNSIDGQISRFVAADQPIWADPADSAAFLDTIDELVAIIREWSPMASEKPIGICLTRADDMMQQAMFRIEEEFRSLMERGAESFGLNPQGDAGAMNHRFDSEEEEDDDRDFNNGDDIQIPVAQPLTDYDLIIDALPSATINDLHEMAKRMLGAGFGKACSHVYSSCRREFLEESMSRLGLQKLSIEEVHKMPWQELEDEIDRWIKAANVALRILFPSERRLCDRVFFGFSSAADLSFMEVCRGSTIQLLNFADAIAIGSRSPERLFKVLDVFETMRDLMPEFESVFSDQFCSVLRNEAVTIWKRLGEAIRGIFMELENLIRRDPAKAAVPGGGLHPITRYVMNYLRAACRSRQTLEQVFEESNGVPSKDSTLLTVQMSWIMELLESNLEVKSKVYKDPALCYVFLMNNGRYIVQKVKDGDLGLLLGDDWIRKHNVKVKQYHMNYQRSSWNKMLGLLKVDNTAAGMNGLGKTMKEKLKQFNIQFDEICKVHSTWVVFDEQLKEELKISLARLLVPAYGSFIGRFQNLGDIGKNADKYIKYGVEDIEARINELFKGTTTGRK
Turning to B3, in assay [1], the binding result was “binds”.

B4: AtEXO70B1 fused C-terminally with nVENUS (protein, UniProt Q9FGH9 1-624)
chain: MAENGEEKLLAVARHIAKTLGHNESMADDILQIFSNFDGRFSREKLAEGQAGEDGSGVATLERALNSIDGQISRFVAADQPIWADPADSAAFLDTIDELVAIIREWSPMASEKPIGICLTRADDMMQQAMFRIEEEFRSLMERGAESFGLNPQGDAGAMNHRFDSEEEEDDDRDFNNGDDIQIPVAQPLTDYDLIIDALPSATINDLHEMAKRMLGAGFGKACSHVYSSCRREFLEESMSRLGLQKLSIEEVHKMPWQELEDEIDRWIKAANVALRILFPSERRLCDRVFFGFSSAADLSFMEVCRGSTIQLLNFADAIAIGSRSPERLFKVLDVFETMRDLMPEFESVFSDQFCSVLRNEAVTIWKRLGEAIRGIFMELENLIRRDPAKAAVPGGGLHPITRYVMNYLRAACRSRQTLEQVFEESNGVPSKDSTLLTVQMSWIMELLESNLEVKSKVYKDPALCYVFLMNNGRYIVQKVKDGDLGLLLGDDWIRKHNVKVKQYHMNYQRSSWNKMLGLLKVDNTAAGMNGLGKTMKEKLKQFNIQFDEICKVHSTWVVFDEQLKEELKISLARLLVPAYGSFIGRFQNLGDIGKNADKYIKYGVEDIEARINELFKGTTTGRK
On to B4, for which the binding entry in assay [3] is given as “binds”.

B5: Arabidopsis SEC15B, yeast two-hybrid fusion (protein, UniProt F4JHH5 1-787)
chain: MQSSKGRRKVGSTTAGAGIDSAEKLDELLISSAICNGEDLGPFVRKTFGTGKPETLLHHLKFFARSKESEIEEVCKAHYQDFIHAVDDLKSLLSDVESLKSALSDSNSKLQSVAAPLLSSLDSLVEAQTVSKNVDLAIGAVTHCVRVMELVSRANQHLQSGNFYMALKCVDSIESDFMEKTPSSTLKRMLENRIPAIRSYVERKVNKEFGDWLVEIRVVSRNLGQLAIGEASAARQREEELRIKQRQAEEQSRLSLRDCVYALNEEEDDEFGSGHEGSDGGSSGGGLLGFDLTPLYRAYHIHQTLSLGDTFKQYYYNNRDLQLTSDFQIAGFFIVEDRVLRTGGGLISKLEVETLWDTAVTKMCAVLEDQFSRMQTANHLLLIKDYVSLLGVSLRRYGYAVDSLLEVLSKHRDKYHELLLSDCRKQITEALSADKFEQMLMKKEYEYSMNVLSFQLQTSEIVPAFPFIAPFSTTVPDCCRIVRSFIEDSVSFMSHGGQLDFYDVVKKYLDRLLGEVLDEALLKLISTSVHGVSQAMQVAANMAVFERACDFFFRHAAHLSGVPLRMAERGRRHFPLTKSQNTAEDTLSGMLKKKIDGFMTLLENVNWTSDDIPQGGNEYMNEVLIYLETLVSTAQQILPAKVLKRVLRDVLAHISEKIVGTLCGDLVKRLSMAAIKGLDVDIQLLDSFTENLTPLLTDKEAREMKKAFVEIRQMINLLLSSHPENFVNPVIRERSYNALDYRKVATVSEKFRDPSDSIFGTFGTRGSRQNPKNKSLDALIKRLKDVS
Take B5: the binding entry in assay [2] was “binds”.
